The text below walks through data of publication PMC4022905.

The chains behind the UniProt entries cited, without tags or fusion partners. Residues count along the entry.
UniProt Q96F46, residues 33-320: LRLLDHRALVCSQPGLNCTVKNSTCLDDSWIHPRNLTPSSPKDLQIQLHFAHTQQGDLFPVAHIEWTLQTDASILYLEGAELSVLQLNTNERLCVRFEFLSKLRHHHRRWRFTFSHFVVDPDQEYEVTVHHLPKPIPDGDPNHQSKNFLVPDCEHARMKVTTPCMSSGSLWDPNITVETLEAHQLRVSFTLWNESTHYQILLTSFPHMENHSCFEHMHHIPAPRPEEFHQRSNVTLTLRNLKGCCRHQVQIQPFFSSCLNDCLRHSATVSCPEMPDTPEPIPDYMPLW
UniProt Q16552, residues 24-155: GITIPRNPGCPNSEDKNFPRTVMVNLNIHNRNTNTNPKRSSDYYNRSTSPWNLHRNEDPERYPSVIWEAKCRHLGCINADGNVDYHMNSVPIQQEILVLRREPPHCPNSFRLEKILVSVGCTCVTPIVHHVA

These are yes or no findings as the source states them, for the method shown. Some results given as binding are weak or reduced against the parent protein; the word gives no strength.

This experiment concerns the target IL-17-receptor (IL-17R)-Fc fusion, commercially available (UniProt Q96F46). Description: ELISA; competition ELISA; IL-17R-Fc coated on Maxisorp plates at 0.6 ug/ml; different concentrations of the Fc fusions pre-incubated with 2.5 nM biotinylated IL-17A and added to the wells; bound IL-17A detected with streptavidin-HRP; both purified. (In general: ELISA stands for enzyme-linked immunosorbent assay.)

As for “biotinylated human interleukin-17A (IL-17A) (from UniProt Q16552 24-155)”, the binding result is “binds”.
